Source: the supplement of paper PMC10849652
This is one part of the list.

Protein sequences, listed by entry. Tags and fused reporters are not part of them. Lines headed by an entry give the natural chain unless they say otherwise; changes in a name come on top.
UniProt Q9UNM6: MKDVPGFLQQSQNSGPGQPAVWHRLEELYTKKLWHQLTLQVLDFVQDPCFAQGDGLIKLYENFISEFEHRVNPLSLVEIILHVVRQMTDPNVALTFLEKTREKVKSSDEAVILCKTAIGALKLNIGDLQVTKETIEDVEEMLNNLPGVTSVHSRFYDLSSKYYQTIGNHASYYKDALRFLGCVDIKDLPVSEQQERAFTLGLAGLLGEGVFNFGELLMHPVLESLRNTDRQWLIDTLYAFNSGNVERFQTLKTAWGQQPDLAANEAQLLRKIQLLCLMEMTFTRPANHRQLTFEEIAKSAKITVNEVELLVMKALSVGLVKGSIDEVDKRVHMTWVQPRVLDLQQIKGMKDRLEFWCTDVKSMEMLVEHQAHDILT
UniProt Q14997: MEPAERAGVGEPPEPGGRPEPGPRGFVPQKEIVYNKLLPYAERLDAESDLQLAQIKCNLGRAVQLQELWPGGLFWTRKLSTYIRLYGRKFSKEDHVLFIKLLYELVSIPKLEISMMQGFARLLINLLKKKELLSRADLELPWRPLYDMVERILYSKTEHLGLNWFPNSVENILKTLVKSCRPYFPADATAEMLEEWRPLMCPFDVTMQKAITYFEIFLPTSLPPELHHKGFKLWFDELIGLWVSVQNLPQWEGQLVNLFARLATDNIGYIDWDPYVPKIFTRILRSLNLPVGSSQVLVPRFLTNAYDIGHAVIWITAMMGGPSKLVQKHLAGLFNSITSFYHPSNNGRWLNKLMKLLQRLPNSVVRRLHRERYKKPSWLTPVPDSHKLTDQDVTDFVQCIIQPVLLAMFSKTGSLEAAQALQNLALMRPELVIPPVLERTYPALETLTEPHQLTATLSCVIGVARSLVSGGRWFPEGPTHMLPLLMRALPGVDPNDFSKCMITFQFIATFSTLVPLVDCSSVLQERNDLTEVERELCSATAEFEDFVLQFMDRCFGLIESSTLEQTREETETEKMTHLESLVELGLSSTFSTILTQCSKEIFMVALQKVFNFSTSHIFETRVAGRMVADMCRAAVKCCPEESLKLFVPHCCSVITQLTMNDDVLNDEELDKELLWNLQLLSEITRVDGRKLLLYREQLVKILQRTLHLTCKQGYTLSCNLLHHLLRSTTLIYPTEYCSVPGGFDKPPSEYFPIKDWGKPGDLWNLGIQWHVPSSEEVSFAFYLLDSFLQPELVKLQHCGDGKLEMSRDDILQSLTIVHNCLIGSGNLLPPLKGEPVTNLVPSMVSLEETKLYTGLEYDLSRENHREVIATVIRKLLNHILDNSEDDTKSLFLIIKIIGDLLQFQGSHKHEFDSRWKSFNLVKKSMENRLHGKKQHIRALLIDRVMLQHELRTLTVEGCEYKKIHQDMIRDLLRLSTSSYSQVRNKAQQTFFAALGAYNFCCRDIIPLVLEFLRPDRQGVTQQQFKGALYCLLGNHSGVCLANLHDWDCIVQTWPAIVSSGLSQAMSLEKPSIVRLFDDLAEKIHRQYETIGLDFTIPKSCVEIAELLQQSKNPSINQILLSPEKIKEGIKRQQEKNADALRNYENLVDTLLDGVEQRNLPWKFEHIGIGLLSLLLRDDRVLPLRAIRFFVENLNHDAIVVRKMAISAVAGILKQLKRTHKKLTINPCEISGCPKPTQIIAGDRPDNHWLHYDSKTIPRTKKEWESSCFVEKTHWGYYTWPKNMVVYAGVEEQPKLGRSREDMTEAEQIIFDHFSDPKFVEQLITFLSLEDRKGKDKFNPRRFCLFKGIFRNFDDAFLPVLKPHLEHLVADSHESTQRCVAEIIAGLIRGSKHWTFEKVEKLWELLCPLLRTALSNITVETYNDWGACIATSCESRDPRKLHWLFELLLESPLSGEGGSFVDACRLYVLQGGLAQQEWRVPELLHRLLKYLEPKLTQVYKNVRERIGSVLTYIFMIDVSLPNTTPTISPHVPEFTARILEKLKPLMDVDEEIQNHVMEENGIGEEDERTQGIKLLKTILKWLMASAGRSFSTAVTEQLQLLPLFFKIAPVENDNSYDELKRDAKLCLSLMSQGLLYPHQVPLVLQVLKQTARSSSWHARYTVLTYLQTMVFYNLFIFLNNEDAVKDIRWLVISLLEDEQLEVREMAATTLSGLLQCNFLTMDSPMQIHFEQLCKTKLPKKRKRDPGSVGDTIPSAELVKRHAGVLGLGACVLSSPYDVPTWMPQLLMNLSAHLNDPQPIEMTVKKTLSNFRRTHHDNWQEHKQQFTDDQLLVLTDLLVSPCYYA
UniProt Q99436: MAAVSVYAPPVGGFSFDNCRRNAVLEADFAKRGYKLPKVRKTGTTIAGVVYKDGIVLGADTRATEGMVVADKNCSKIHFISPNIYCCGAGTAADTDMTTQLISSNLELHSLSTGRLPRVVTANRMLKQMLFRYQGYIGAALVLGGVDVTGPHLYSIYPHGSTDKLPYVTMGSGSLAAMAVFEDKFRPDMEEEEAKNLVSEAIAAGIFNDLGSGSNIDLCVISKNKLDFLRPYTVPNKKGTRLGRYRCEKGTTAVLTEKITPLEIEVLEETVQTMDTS
UniProt Q9P2W1: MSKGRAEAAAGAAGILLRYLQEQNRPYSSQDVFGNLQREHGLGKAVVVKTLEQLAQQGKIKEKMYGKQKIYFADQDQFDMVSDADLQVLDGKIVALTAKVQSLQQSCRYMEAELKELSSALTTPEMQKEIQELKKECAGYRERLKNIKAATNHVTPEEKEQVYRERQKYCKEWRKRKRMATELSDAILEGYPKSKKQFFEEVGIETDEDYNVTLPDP
UniProt P35998: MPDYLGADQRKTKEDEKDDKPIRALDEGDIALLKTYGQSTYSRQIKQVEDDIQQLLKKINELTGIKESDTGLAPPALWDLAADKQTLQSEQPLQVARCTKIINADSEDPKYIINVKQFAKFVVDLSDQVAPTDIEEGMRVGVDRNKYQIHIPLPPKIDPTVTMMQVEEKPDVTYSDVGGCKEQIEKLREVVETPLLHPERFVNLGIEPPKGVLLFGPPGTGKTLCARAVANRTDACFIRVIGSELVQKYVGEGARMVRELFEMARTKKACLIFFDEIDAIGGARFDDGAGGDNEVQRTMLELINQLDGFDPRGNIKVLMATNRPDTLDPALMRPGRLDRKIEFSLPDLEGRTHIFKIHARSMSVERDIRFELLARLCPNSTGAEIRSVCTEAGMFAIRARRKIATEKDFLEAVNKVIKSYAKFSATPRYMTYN
UniProt Q7Z6K3: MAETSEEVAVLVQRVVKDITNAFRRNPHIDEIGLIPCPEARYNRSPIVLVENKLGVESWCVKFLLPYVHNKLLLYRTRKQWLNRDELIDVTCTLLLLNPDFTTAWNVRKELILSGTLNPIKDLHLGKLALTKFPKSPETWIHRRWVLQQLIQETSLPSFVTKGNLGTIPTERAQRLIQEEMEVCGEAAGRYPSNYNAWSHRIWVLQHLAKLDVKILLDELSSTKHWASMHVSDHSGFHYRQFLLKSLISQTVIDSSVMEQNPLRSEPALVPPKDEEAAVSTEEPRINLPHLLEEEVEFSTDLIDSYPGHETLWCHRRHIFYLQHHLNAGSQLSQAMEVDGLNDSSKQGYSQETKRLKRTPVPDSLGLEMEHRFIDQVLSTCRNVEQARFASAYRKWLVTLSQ
UniProt O00487, whole entry, looked up: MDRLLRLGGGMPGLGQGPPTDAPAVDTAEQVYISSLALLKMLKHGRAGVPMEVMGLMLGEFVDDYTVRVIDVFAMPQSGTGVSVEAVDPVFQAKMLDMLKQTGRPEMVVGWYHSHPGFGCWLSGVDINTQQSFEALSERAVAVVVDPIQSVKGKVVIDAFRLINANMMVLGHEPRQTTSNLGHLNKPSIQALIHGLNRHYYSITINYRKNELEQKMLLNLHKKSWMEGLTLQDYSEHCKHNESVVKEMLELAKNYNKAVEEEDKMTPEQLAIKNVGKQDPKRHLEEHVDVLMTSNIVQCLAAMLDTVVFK
UniProt Q969U7: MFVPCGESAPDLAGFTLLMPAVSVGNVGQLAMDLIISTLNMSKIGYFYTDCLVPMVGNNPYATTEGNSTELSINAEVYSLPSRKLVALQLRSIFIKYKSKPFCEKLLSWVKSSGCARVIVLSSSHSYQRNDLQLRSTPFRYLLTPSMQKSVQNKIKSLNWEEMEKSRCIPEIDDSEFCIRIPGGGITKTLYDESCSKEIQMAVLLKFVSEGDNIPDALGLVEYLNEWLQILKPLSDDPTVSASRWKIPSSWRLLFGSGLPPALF

Experiments:
Assay in all cases: log2 fold change, soluble protein after heating vs DMSO (PISA); higher = thermal stabilisation; K562 lysate, 10 uM; active = over 0.2 and 3.5 SD of the protein, either way, in both replicates (recomputed)
[1] = compound: NCC(=O)Nc1ccc(-n2nc(C(F)(F)F)cc2-c2ccc3c(ccc4ccccc43)c2)cc1
Summary of the method: (§1)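 Soluble protein was defined as the supernatant remaining after 21,000xg for 90 min, following pooling of heated aliquots and adjustment to 0.5% NP-40 at 4°C. Before that, crude K562 extract at 1 mg/mL protein in PBS pH 7.4 with 1 mM MgCl2 was treated with 10 μM compound for 30 min and heated for 3 min across 48°C-58°C. Quantification used TMTpro 16plex LC-MS/MS with channel sums equalised, and values are log-two fold changes in thermal stability relative to solvent controls from duplicates.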

vorinostat = compound: O=C(CCCCCCC(=O)Nc1ccccc1)NO [vorinostat]
Summary of the method: as §1

silmitasertib = compound: O=C(O)c1ccc2c(c1)nc(Nc1cccc(Cl)c1)c1ccncc12 [silmitasertib]
Summary of the method: as §1

[2] = compound: O=C1NC(=O)C(c2cnc3ccccn23)=C1c1cn2c3c(cc(F)cc13)CN(C(=O)N1CCCCC1)CC2
Summary of the method: as §1

entospletinib = compound: c1cn2cc(-c3ccc4cn[nH]c4c3)nc(Nc3ccc(N4CCOCC4)cc3)c2n1 [entospletinib]
Summary of the method: as §1

Measured: log2 fold change

PSMD13 (UniProt Q9UNM6)
inactive: [1] -0.046 | vorinostat -0.034 | silmitasertib 0.017 | [2] -0.024 | entospletinib 0

PSME4 (UniProt Q14997)
inactive: [1] -0.006 | vorinostat -0.197 | silmitasertib 0.062 | [2] 0.022 | entospletinib -0.002

PSMB7 (UniProt Q99436)
inactive: [1] -0.002 | vorinostat 0.108 | silmitasertib -0.027 | [2] 0.012 | entospletinib 0.02

PSMC3IP (UniProt Q9P2W1)
inactive: [1] 0.004 | vorinostat -0.042 | silmitasertib -0.012 | [2] -0.012 | entospletinib -0.009

PSMC2 (UniProt P35998)
inactive: [1] 0.014 | vorinostat -0.007 | silmitasertib 0.009 | [2] 0.016 | entospletinib 0.023

PTDSS1 (UniProt P48651)
inactive: [1] 0.022 | vorinostat 0.045 | silmitasertib 0.029 | [2] -0.061 | entospletinib -0.042

PTAR1 (UniProt Q7Z6K3)
inactive: [1] 0.053 | vorinostat -0.029 | silmitasertib 0.009 | [2] 0.033 | entospletinib 0.086

PSMD14 (UniProt O00487)
inactive: [1] 0 | vorinostat -0.03 | silmitasertib -0.012 | [2] -0.018 | entospletinib 0.007

PSMG2 (UniProt Q969U7)
inactive: [1] 0.014 | vorinostat 0.105 | silmitasertib 0.018 | [2] -0.015 | entospletinib 0.018
